PubChem BioAssay AID504793 | Drosophila RNAi Screening Center | 2011
Assay: 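Whole-genome screen for parts of the DNA damage checkpoint at G2/M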 (primary screen). Cells: Drosophila S2R+ cells. Reagents: long dsRNA against Drosophila genes, about 0.25 µg dsRNA per well. Time to read-out: 4 days of dsRNA, then 4 hours of drug before read-out. Treatment: doxorubicin 0.5 µM for 4 hours to cause double-strand breaks, in cells also given a low, harmless dose of dsRNA against nbs to sensitise the assay. Read-out: 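Per-well count of mitotic cells stained for phospho-histone H3 after doxorubicin exposure, used as mitotic index; counts are raw and not normalised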. Reading the numbers: mitotic cells: higher = more cells in mitosis, weaker G2 arrest. Hit rule: 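Genes are called active only when high mitotic counts were reproduced with independent dsRNAs and mitosis was checked for delay without damage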. Meaning of the calls: active = confirmed in follow-up tests; inactive = not confirmed.
The deposit covers about 23,000 reagents; below is an unselected part of those with a known target gene and a result. Over the whole deposit, 62 (0.27%) are marked active. 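Calls come from follow-up tests whose scores are not deposited, so confirmed genes may have low counts here; counts are not normalised per plate.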 The raw values are shown without normalisation. Reagent sequences are not shown.

gene knocked down	DRSC id	mitotic cells, replicate 1	mitotic cells, replicate 2	Outcome
AANATL6	DRSC06773	11		inactive
c-cup	DRSC00458	6		inactive
melt	DRSC11367	5		inactive
CG15739	DRSC19705	15		inactive
CG15739	DRSC28638	7		inactive
jp	DRSC02213	4		inactive
CG1640	DRSC19750	3		inactive
PLCXD	DRSC02427	4	15	inactive
CG2061	DRSC19348	4		inactive
NijB	DRSC09850	10		inactive
CG12607	DRSC08287	5		inactive
Zmynd10	DRSC09826	10		inactive
Zmynd10	DRSC28996	6		inactive
CG34002	DRSC09512	7		inactive
CG34002	DRSC11953	4		inactive
CG34002	DRSC26854	11		inactive
dunk	DRSC36514	9		inactive
dunk	DRSC36515	10		inactive
l(3)62Be (retired record)	DRSC08231	13		inactive
CheB98a	DRSC14882	12		inactive
CG13678	DRSC10036	7		inactive
Nhe3	DRSC03380	6		inactive
fau	DRSC12816	15		inactive
fau	DRSC12817	12		inactive
fau	DRSC16943	2		inactive
fau	DRSC16944	4		inactive
fau	DRSC16945	10		inactive
fau	DRSC22360	14		inactive
fau	DRSC27672	6		inactive
CG1360	DRSC06406	8		inactive
CG1360	DRSC29406	8		inactive
CG6553	DRSC07002	5		inactive
bur	DRSC03163	3		inactive
CG30334	DRSC05345	9		inactive
CG30334	DRSC24086	6		inactive
Ekar	DRSC17161	19		inactive
Ekar	DRSC24931	6		inactive
CG4409	DRSC06869	7		inactive
CG4409	DRSC28040	7		inactive
TwdlY	DRSC19153	4	13	inactive
Fak	DRSC07426	4		inactive
Fak	DRSC26626	4		inactive
CG30196	DRSC04156	2		inactive
l(1)G0289	DRSC18215	8		inactive
l(1)G0289	DRSC29200			inactive
CG8757	DRSC11039	8		inactive
CG8757	DRSC24587	6		inactive
Rpt1	DRSC07542	43		inactive
sol	DRSC20587	4		inactive
sol	DRSC26252	3		inactive

Next part, starting with the last 10 of the part before.
gene knocked down	DRSC id	mitotic cells, replicate 1	mitotic cells, replicate 2	Outcome
Fak	DRSC07426	4		inactive
Fak	DRSC26626	4		inactive
CG30196	DRSC04156	2		inactive
l(1)G0289	DRSC18215	8		inactive
l(1)G0289	DRSC29200			inactive
CG8757	DRSC11039	8		inactive
CG8757	DRSC24587	6		inactive
Rpt1	DRSC07542	43		inactive
sol	DRSC20587	4		inactive
sol	DRSC26252	3		inactive
mmm	DRSC10208	8		inactive
CG12290	DRSC14497	1		inactive
CG12290	DRSC28328	7		inactive
CG18493	DRSC15334			inactive
CG8541	DRSC10989	3		inactive
CG8541	DRSC25235	9		inactive
spag	DRSC04717	5		inactive
CG31760	DRSC02590	4		inactive
CG31760	DRSC27108	2		inactive
Ugt37A1	DRSC02114	3		inactive
ck	DRSC03509	4		inactive
CG4734	DRSC06885	11		inactive
CG4734	DRSC22072	8		inactive
CG9928	DRSC03274	8		inactive
CG3589	DRSC04392	5		inactive
CG3589	DRSC26755	3		inactive
CG4839	DRSC02783	7		inactive
CG4839	DRSC02784	6		inactive
Lamtor3	DRSC02815	8		inactive
meng	DRSC02134	13		inactive
meng	DRSC28743	8		inactive
CG6465	DRSC16046	9		inactive
CG6465	DRSC25671	11		inactive
CG18480	DRSC01957	2		inactive
CG18480	DRSC24949	7		inactive
